Results from patent EP4285989A1 (priority 2021, dated 2022).

Tested on: Clostridium butyricum M-II588
Type: cell-based
Details: 1 w/v% carbohydrate, butyric acid bacterium culture, anaerobic, 37°C; mean ± standard error of three samples

| Compound | pH After culture for 20 hours |
| --- | --- |
| α-cyclodextrin [α-CD] | 4.7±0.0 |
| OC[C@H]1O[C@@H](O[C@H]2[C@H](O)[C@@H](O)[C@@H](O[C@]3(CO)O[C@H](CO)[C@@H](O)[C@@H]3O)O[C@@H]2CO)[C@H](O)[C@@H](O)[C@H]1O [LS, Lactosucrose, reference compound] | 6.3±0.1 |

The amount applied is not stated for every result.
